Assay [1] deals with T1, 3xFlag-ZNF598 (Zinc Finger Protein 598) (human) (UniProt Q86UK7).
T1 sequence: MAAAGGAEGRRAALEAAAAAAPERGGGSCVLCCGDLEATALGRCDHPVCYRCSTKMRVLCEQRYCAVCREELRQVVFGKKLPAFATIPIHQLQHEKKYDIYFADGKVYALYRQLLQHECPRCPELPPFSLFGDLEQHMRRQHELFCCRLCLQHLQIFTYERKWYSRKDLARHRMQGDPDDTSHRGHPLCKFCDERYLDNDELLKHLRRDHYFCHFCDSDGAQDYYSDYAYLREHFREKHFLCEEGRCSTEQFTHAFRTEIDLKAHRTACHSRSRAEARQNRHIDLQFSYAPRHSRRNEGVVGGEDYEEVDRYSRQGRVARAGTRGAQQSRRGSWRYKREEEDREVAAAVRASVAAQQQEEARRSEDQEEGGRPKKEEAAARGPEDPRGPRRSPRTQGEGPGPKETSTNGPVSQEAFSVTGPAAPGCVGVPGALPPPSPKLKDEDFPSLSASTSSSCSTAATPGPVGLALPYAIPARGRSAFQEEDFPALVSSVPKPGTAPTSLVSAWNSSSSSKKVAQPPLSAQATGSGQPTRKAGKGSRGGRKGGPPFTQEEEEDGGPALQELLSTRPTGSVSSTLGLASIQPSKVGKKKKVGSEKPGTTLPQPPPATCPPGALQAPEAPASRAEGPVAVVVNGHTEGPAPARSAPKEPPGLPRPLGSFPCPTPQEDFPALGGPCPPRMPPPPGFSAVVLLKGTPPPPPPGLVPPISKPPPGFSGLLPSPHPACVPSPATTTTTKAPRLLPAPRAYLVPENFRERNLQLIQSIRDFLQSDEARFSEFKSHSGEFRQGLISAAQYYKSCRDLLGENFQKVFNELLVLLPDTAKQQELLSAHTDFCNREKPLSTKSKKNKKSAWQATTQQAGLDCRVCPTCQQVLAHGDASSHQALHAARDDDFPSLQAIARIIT
Put plainly: SEC; cell lysate on Superose 6 (24 ml) in 25 mM HEPES-KOH pH 7.4, 150 mM KCl, 75 mM KOAc, 2 mM MgCl2, 0.5% NP40; fractions analysed by blot. On the technique in general: In gel filtration, larger molecules generally elute earlier.

The chains behind the UniProt entries cited, without tags or fusion partners. Where a name states a change or a piece, a line headed by the entry shows the natural chain unless it says otherwise. A line that says so, or that is headed by a name, gives the form on record, which may keep a tag or linker.
UBE2D3 (E2 ubiquitin ligase) (P61077-2, form named): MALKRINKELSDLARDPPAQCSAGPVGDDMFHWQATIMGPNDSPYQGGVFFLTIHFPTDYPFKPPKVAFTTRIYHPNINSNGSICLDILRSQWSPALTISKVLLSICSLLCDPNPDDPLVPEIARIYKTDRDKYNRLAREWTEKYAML

For assay [2], the target named is T2, ΔRING mutant (aa 81–904) of ZNF598 (human) (UniProt Q86UK7).
T2 sequence: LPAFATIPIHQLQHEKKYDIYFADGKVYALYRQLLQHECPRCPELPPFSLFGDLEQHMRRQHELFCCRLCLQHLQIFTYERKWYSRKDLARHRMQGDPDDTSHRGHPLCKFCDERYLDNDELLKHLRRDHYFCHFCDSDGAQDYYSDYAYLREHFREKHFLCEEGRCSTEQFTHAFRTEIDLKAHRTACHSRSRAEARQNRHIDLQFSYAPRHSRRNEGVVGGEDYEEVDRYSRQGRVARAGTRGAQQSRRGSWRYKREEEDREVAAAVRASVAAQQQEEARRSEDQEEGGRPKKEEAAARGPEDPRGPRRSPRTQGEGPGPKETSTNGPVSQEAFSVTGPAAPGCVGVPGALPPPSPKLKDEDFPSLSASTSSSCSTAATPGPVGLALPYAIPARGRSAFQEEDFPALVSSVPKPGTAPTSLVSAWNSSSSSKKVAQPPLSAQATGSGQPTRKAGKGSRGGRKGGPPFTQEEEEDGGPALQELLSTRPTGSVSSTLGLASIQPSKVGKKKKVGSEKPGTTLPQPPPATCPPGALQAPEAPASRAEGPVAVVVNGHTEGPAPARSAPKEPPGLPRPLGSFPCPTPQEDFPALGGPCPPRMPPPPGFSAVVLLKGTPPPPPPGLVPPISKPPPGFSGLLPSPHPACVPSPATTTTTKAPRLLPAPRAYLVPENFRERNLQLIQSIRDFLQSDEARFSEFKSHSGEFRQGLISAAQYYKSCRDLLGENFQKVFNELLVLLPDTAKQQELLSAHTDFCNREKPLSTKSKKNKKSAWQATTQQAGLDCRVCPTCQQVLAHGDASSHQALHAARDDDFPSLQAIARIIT
The assay is described as above.

In assay [3] the target is T1, 3xFlag-ZNF598 (Zinc Finger Protein 598) (human). Kind of assay: co-IP; anti-Flag M2 antibody and protein G agarose on lysate of Flp-In T-REx 293 cells transiently transfected with 3xFlag-ZNF598 or empty vector; 0.3% CHAPS, 120 mM NaCl, RNase A 10 μg/ml; western blot. (Immunoblotting shows a protein as a band on a membrane.)

These are yes or no findings as the source states them, for the method shown. For part of these data: In cells and extracts the contact can be indirect. Some entries that bind do so weakly or less than the wild type. For part of these data: Where a sequence is shown, tags or fusion partners need not be part of it.

Regarding “UBE2D3 (E2 ubiquitin ligase) (from UniProt P61077-2 1-148) (enzyme)”, the binding entry in assay [1] is listed as “binds”; in assay [2], “no binding”; in assay [3], “binds”.

The values are drawn from publication PMC5504347.
